Results on 11 targets are retold here after the supplement of paper PMC12819154, “High-throughput peptide-centric local stability assay extends protein–ligand identification to membrane proteins, tissues and bacteria” (Nature Structural & Molecular Biology, 2025).

By UniProt entry, the sequences of proteins in these tests, tags left out. Where a name states a change or a piece, a line headed by the entry shows the natural chain unless it says otherwise.
UniProt Q13620, whole entry: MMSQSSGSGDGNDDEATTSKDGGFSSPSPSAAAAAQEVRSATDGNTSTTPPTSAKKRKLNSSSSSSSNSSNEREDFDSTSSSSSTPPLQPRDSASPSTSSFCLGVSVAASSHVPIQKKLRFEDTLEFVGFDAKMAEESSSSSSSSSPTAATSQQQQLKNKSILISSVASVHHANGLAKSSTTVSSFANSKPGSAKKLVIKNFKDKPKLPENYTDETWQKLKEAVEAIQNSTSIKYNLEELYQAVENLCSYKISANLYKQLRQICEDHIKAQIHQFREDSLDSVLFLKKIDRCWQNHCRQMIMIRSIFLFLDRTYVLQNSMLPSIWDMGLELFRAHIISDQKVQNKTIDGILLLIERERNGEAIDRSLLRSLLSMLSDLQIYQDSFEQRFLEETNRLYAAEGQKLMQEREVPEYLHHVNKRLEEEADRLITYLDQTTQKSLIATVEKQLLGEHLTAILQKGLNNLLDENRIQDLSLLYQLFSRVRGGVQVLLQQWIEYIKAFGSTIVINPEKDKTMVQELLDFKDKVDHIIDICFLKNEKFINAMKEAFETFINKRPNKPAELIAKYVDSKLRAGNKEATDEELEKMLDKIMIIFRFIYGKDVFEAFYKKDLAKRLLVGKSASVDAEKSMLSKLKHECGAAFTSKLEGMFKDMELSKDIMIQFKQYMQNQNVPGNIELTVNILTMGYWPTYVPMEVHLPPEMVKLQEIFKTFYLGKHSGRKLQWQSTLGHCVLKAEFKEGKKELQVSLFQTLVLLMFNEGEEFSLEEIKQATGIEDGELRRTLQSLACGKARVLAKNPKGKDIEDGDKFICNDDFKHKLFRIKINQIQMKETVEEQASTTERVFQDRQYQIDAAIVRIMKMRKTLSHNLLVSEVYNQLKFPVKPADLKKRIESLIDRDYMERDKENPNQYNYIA
UniProt Q14565: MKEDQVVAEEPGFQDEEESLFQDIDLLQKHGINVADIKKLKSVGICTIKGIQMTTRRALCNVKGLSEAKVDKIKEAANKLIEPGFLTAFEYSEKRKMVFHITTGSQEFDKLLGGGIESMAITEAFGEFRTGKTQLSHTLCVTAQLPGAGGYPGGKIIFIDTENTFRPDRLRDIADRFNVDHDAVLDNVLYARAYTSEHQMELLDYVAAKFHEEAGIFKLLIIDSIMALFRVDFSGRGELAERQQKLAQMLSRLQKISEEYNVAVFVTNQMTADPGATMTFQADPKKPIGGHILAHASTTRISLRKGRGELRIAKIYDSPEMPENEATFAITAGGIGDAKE
UniProt Q15050: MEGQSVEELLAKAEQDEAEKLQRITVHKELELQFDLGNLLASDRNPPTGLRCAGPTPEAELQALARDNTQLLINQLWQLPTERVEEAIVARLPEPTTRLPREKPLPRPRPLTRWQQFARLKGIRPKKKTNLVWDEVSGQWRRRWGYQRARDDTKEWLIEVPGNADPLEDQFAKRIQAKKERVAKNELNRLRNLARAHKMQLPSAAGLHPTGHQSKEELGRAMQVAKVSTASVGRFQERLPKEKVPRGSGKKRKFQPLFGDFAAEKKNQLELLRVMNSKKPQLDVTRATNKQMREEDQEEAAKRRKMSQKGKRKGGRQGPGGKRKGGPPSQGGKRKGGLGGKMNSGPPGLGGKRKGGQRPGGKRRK
UniProt Q14684: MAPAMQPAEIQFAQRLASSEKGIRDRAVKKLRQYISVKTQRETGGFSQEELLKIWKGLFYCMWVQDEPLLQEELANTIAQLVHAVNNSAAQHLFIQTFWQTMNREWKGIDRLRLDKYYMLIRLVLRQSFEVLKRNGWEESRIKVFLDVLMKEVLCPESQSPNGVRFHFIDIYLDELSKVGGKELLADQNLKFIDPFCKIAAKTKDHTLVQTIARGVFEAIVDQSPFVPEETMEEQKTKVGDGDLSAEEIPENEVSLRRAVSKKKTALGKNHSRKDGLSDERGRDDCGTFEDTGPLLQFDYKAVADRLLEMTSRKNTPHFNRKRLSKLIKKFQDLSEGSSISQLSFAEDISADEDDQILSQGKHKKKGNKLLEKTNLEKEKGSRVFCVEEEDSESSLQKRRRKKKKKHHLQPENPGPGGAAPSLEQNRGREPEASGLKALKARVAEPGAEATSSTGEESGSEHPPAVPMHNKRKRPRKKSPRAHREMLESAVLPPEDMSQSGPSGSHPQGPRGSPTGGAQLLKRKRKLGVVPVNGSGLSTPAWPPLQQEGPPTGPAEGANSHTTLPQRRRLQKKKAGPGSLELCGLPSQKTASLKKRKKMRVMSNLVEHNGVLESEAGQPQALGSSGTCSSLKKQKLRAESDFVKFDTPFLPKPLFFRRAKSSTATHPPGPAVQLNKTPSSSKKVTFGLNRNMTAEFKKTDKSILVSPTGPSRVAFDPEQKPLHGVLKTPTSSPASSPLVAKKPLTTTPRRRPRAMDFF
UniProt Q14192: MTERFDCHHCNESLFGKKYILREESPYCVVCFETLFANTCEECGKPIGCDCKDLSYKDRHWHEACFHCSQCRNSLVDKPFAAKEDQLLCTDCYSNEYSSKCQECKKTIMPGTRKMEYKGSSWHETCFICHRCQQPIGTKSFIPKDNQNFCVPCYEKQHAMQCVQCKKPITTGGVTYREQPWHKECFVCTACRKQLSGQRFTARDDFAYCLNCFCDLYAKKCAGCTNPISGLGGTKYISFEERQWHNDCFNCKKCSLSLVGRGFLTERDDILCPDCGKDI
UniProt Q149N8: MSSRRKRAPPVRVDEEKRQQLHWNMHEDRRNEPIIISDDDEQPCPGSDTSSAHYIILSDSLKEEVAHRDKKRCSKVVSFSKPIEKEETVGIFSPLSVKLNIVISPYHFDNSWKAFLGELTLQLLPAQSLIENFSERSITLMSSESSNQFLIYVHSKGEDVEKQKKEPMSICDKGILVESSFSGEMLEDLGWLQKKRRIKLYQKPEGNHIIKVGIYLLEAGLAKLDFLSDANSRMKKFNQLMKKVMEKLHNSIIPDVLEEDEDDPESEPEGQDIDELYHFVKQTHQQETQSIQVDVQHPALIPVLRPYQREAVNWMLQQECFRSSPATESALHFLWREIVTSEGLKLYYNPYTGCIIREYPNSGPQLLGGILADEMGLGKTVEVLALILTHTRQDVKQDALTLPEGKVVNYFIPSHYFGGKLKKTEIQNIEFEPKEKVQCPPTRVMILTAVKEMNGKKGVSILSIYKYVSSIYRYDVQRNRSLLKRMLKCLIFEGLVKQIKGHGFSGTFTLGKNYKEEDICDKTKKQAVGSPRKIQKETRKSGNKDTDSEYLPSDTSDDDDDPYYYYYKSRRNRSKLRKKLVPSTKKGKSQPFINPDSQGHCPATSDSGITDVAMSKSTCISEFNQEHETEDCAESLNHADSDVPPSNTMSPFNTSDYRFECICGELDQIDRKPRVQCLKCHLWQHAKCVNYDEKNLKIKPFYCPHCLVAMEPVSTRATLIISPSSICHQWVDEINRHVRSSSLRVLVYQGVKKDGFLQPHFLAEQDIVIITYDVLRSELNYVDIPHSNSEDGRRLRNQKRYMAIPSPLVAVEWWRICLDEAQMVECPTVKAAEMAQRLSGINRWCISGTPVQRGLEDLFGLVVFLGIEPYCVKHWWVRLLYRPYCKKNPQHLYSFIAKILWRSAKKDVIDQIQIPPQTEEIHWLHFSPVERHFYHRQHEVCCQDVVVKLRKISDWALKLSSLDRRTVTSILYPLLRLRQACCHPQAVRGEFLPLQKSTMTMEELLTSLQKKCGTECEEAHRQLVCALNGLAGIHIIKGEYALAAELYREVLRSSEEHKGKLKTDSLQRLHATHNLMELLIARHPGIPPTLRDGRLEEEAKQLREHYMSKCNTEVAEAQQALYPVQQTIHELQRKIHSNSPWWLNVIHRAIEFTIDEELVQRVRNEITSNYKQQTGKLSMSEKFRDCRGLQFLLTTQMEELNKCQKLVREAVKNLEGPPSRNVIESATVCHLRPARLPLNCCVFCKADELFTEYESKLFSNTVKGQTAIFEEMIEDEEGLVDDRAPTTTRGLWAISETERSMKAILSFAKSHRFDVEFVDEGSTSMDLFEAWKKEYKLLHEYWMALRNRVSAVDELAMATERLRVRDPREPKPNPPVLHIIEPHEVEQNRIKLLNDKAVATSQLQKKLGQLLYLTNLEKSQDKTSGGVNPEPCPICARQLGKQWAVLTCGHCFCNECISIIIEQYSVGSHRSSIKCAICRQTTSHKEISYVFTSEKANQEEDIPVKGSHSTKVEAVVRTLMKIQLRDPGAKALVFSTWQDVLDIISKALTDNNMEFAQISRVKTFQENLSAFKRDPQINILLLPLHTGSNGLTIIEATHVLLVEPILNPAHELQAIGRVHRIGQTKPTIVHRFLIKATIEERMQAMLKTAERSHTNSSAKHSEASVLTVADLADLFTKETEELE
UniProt Q13643: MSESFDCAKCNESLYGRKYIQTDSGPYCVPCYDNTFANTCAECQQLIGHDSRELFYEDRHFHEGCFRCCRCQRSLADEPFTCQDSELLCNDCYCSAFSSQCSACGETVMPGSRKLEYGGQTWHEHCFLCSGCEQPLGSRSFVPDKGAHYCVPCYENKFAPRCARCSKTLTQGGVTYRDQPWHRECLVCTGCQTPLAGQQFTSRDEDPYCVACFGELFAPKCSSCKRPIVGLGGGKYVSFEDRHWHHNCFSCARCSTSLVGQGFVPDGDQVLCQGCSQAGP
UniProt Q13838, whole entry: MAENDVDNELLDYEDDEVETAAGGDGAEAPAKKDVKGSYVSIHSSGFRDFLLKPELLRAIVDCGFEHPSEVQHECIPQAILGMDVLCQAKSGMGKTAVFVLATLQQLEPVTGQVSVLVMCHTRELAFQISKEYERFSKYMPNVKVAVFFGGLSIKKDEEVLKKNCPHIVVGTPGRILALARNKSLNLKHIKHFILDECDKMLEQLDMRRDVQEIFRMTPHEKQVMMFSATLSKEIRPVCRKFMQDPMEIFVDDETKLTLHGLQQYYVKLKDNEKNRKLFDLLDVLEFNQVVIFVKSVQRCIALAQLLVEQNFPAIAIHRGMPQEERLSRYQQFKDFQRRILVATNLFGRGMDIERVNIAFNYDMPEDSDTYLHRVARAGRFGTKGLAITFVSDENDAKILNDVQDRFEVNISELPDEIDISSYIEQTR
UniProt Q14872: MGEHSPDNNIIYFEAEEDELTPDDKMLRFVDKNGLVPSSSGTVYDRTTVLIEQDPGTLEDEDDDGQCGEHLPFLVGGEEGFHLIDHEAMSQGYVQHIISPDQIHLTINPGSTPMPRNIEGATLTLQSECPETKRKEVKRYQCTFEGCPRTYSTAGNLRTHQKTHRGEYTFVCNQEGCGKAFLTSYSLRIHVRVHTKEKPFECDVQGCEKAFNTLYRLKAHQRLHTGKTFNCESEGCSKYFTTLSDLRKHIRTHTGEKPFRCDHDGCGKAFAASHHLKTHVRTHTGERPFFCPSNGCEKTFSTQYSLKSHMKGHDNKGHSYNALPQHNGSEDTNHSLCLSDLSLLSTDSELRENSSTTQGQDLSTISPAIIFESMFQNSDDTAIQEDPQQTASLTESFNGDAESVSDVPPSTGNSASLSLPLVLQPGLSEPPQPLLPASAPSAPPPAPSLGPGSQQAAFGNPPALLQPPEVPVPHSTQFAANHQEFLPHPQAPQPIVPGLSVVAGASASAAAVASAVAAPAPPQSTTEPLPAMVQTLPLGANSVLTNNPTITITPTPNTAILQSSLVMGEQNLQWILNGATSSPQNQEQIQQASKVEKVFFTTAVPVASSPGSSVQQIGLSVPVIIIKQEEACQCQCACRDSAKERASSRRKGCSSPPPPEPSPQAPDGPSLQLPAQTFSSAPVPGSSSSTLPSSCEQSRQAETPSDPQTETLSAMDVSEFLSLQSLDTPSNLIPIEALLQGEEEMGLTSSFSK
UniProt Q13829: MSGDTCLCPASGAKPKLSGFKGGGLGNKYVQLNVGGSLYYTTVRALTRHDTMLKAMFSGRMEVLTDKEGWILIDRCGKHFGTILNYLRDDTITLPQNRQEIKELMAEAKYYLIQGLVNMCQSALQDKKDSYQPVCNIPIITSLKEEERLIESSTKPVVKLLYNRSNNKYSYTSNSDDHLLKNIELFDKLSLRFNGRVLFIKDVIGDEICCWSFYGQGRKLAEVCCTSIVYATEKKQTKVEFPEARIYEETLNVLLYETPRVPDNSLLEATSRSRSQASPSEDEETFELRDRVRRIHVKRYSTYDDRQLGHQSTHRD

The list shows a part of the results. Small differences around the control level are noise.

Compound in this experiment: CN[C@@H]1C[C@H]2O[C@@](C)([C@@H]1OC)n1c3ccccc3c3c4c(c5c6ccccc6n2c5c31)C(=O)NC4 [staurosporine]
In words: log2 fold change of tryptic peptide abundance, ligand vs vehicle (limited proteolysis) (log2 ratio); higher = more trypsin-susceptible (destabilized). The following applies: ligand concentration: 20 uM; sample: K562 cleared lysate; digestion: 4 min, 22 C (HT-PELSA RT4min, Orbitrap Astral).
Consider “UniProt Q13620 (peptide sequence: QLLGEHLTAILQK, peptide start residue: 447)”, for which the log2 fold change is -0.263. The value for “UniProt Q14565 (peptide sequence: IIFIDTENTFRPDR, peptide start residue: 156)” was -0.282. The value for “RRS1 (peptide sequence: EKPLPRPR, peptide start residue: 102) (UniProt Q15050)” was 0.3; that for “RRP1B (peptide sequence: GSPTGGAQLLK, peptide start residue: 512) (UniProt Q14684)” was -0.167; that for “FHL2 (peptide sequence: GSSWHETCFICHR, peptide start residue: 119) (UniProt Q14192)” was -0.866.

As to “SHPRH (peptide sequence: TVEVLALILTHTR, peptide start residue: 380) (UniProt Q149N8)”, the log2 fold change was 0.738.

“FHL3 (peptide sequence: HFHEGCFRCCR, peptide start residue: 60) (UniProt Q13643)”: the log2 fold change was -0.216. For “DDX39B (peptide sequence: NCPHIVVGTPGR, peptide start residue: 164) (UniProt Q13838)”, the log2 fold change was 0.391. The value for “MTF1 (peptide sequence: FVDKNGLVPSSSGTVYDR, peptide start residue: 29) (UniProt Q14872)” was 0.184. The value for “SF3B2 (peptide sequence: RGIEKPPFELPDFIK, peptide start residue: 515) (UniProt Q13435)” was -0.334; that for “TNFAIP1 (peptide sequence: MEVLTDKEGWILIDR, peptide start residue: 61) (UniProt Q13829)” was 0.437.
